## Screening data, single-dose tests

By UniProt entry, the sequences of proteins in these tests, tags left out. Residues count along the entry.
UniProt P9WPC5, whole entry: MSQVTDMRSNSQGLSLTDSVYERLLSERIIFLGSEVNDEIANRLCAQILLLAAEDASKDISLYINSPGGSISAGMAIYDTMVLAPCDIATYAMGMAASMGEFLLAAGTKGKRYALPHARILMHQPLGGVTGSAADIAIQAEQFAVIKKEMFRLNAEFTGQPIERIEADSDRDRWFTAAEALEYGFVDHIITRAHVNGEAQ
UniProt P9WPC3, whole entry partner: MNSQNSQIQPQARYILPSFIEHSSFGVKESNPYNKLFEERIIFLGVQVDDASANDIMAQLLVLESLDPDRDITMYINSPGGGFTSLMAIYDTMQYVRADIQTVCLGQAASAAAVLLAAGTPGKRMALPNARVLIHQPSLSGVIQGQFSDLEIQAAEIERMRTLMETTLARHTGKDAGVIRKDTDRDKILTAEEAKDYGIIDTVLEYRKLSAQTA
UniProt Q4DA54, 1-478: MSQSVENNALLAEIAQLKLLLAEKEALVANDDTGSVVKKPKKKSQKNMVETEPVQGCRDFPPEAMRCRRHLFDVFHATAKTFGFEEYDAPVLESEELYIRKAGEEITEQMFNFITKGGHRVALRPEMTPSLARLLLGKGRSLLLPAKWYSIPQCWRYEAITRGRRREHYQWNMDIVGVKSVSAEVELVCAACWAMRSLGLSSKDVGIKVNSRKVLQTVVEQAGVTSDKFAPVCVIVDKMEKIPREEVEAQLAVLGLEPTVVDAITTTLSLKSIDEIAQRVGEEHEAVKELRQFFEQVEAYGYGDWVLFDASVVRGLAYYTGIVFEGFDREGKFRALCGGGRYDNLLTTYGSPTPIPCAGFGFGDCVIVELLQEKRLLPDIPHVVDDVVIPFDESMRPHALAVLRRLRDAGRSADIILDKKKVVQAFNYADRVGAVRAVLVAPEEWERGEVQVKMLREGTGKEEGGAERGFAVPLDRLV
UniProt P9WNZ1, whole entry: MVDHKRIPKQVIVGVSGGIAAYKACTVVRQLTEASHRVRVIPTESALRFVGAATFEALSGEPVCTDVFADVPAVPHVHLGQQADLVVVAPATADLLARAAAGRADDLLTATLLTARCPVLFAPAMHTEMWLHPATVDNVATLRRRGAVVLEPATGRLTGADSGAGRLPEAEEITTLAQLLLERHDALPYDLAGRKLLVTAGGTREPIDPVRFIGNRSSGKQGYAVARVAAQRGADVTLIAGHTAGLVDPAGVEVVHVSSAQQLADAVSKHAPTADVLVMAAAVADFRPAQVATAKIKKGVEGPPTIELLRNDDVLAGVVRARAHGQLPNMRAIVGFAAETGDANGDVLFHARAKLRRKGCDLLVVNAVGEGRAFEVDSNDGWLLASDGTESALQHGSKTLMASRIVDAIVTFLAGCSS

Results are given as percent effect. The record does not define 0% and 100%; most values in the screen are far below 50% and negative numbers occur (in some assays of this library far below -100). This is an unselected part of the compounds tested. A dash means the value is not listed here; it may have been measured.

ClpP1P2: 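Protease assay of ClpP1P2, read by the AMC dye that it sets free. Target: ClpP1P2, Mycobacterium tuberculosis (UniProt P9WPC5 and UniProt P9WPC3). Compounds at 50 µM. Higher reads as stronger inhibition, judged from the few compounds that gave an IC50. Most other retested compounds had strongly negative values. Size under these conditions: about 69,000 compounds, about 10 of them at 50% or above in at least one test.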
Toxoplasma: 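Assay of Toxoplasma gondii numbers, read through their beta-galactosidase reporter with a colour substrate. Tested at 10 µM. Higher reads as fewer parasites (inferred from which compounds were picked for retests). About 67,000 compounds were tested under these conditions; 0.38% (about 260) showed 50% or more at least once.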
Leishmania in macrophages: 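Cell assay of Leishmania donovani living inside macrophages; the read-out is not stated. Concentration: 30 µM. The record gives no direction; compounds that gave an IC50 in retests scored well above the rest, so higher reads as stronger inhibition. About 69,000 compounds were tested under these conditions; 1.5% (about 1,000) showed 50% or more at least once.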
TcHisRS: 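Histidine-tRNA ligase, Trypanosoma cruzi CL Brener (UniProt Q4DA54). Enzyme assay of histidyl-tRNA synthetase; the read-out is not stated. Tested at 30 µM. The record gives no direction; compounds that gave an IC50 in retests scored well above the rest, so higher reads as stronger inhibition. About 69,000 compounds were tested under these conditions; 0.045% (about 31) showed 50% or more at least once.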
CoaBC: 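Coenzyme A biosynthesis protein CoaBC, Mycobacterium tuberculosis (UniProt P9WNZ1). Enzyme assay of CoaBC with a phosphate dye (Biomol Green) read at 650 nm. Tested at 30 µM. Higher reads as stronger inhibition, judged from the few compounds that gave an IC50. Most strong results did not repeat in a second test. Of about 67,000 compounds tested this way, about 40 (0.06%) reached 50% or more in at least one test.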

structure	ClpP1P2	Toxoplasma	Leishmania in macrophages	TcHisRS	CoaBC
O=C(Nc1cccc(F)c1)NC1CCN(Cc2ccncc2)CC1	-14.34	6.4	20.9	1.19	5.283
Cc1csc(N2CCN(C(=O)Cc3ccsc3)CC2)n1	10.99	4.193	2.365	-1.504	1.305
O=S(=O)(C1CC1)N1CCc2ncnc(N3CCOCC3)c2CC1	-1.689	0	35.65	4.523	1.361
COCCN1C(=O)CO[C@H]2CN(CCCc3ccccc3)C[C@H]21	-10.95	-	-	-0.4975	10.41
Cc1ccc(CN2CCCC3(CCCC(=O)N3)C2)s1 (centres undefined)	-18.04	-	-	6.796	6.616
COCC1CCCN(C(=O)c2ccc(NC(=O)CC(C)C)c(C)c2)C1 (centres undefined)	-14.33	13.37	15.88	4.327	-3.181
Cc1noc(CCCC(=O)NCC2CCS(=O)(=O)C2)n1 (centres undefined)	-16.09	1.888	-49.65	1.729	-5.909
CN(Cc1cccs1)c1nc2c(cnn2C(C)(C)C)c(=O)[nH]1	9.874	8.523	24.77	10.92	3.226
CN(C(=O)Cc1ccn(C)c1)C1CCCN(C2Cc3ccccc3C2)C1 (centres undefined)	-7.508	0.5677	-3.188	5.528	-2.533
c1nn(C2CCCCC2)cc1-c1cncn1CCCN1CCCCC1	-6.152	-	-	1.13	-2.421
Cn1ncc2c1NC(=O)CC2c1ccc(O)cc1 (centres undefined)	-0.02844	-6.311	-13.03	4.132	-10.96
Cc1csc(NCC(=O)c2c[nH]c3ccccc23)n1	-1.288	-	-	6.25	-0.6904
[H][C@]12CCC[C@@]1(COC)CN(C(=O)COC)C2	-	-0.8262	32.04	-	-
O=S(=O)(NCC(O)c1ccoc1)c1ccc(Cl)s1 (centres undefined)	-20.49	-10.81	1.962	1.212	3.065
CCC[C@@H]1CN(C(=O)c2cc(-c3cccs3)n(C)n2)C[C@H]1N(C)C	-2.731	7.706	-10.23	11.88	-2.913
Cc1nnc(-c2ccc(C(=O)Nc3ccnc(N(C)C)n3)cc2)o1	-8.582	-12.19	7.111	1.053	5.179
Cn1cc2c(n1)C(CNCc1ccco1)OCC2.O=C(O)C(F)(F)F.O=C(O)C(F)(F)F (centres undefined)	-	4.902	17.48	-	-
CN(C)c1ccc(C(=O)N2CCCc3cc(OC(F)(F)F)ccc32)cn1	-1.085	3.516	17.43	1.149	-1.6
COCCCC(=O)NS(=O)(=O)c1ccc2c(c1)OCCCO2	-7.056	-4.834	-3.052	-0.7576	9.516
CCn1c(CC2CCN(C(=O)C3COCCO3)CC2)nn(C)c1=O (centres undefined)	16.54	-5.036	7.408	-4.516	-2.657
Cn1nc(CNS(=O)(=O)Cc2ccccc2F)c2c1CCCC2	-4.039	-1.508	-12.71	1.554	6.846
CCC(NC(=O)c1nn(C)cc1C(=O)O)c1ccccc1 (centres undefined)	2.67	23.33	13.55	9.249	1.84
O=C(c1cc2c(s1)CCC2)N1CCC(c2ccncc2)CC1	20.01	16.93	46.94	11.65	4.429
CCN1CCOCC2(CCCN(C(=O)c3cccc(O)c3)C2)C1 (centres undefined)	-13.47	-24.16	6.463	4.327	7.529
CN1CC(=O)N(C2CCNCC2)Cc2c(NCC(C)(C)C)ncnc21	18.41	3.497	6.227	10.06	-6.316
Cc1cc(CN2C[C@@H](C)[C@@]3(CCN(CC(=O)N(C)C)C3=O)C2)oc1C.O=C(O)C(F)(F)F	-	2.751	25.62	-	-
c1ccc(CCN2CCCC2c2ccnc(Nc3cnccn3)n2)cc1 (centres undefined)	-30.91	3.876	13.81	8.647	11.89
CCn1nnc(NCc2cc(Br)cc(Br)c2OC)n1	1.87	-8.567	-8.508	4.95	1.456
Cc1cc(C)n(Cc2cccc(C(=O)NCCN3CCOCC3)c2)n1	-1.188	-0.3046	12.79	3.347	6.818
CN(C)S(=O)(=O)NCC1CCN(Cc2ccccc2F)CC1	-2.203	7.458	26.13	11.6	3.439
Cl.O=C(NCCO)c1sc2ncccc2c1C1CNCCO1 (centres undefined)	-	5.775	25.93	-	-
Cc1cccc(=O)n1CCC(=O)N1CC[C@@](O)(C2CCC2)[C@H](C)C1	-7.922	-2.497	7.62	0	5.533
CC(C)n1cnnc1C1CCCN(S(=O)(=O)CCCC#N)C1 (centres undefined)	16.06	8.907	-8.181	7.975	0.128
Cc1ccc2nccc(C(=O)N3CCOC(CCN(C)C)C3)c2c1 (centres undefined)	-152.8	3.755	-0.02874	-2.051	-15.61
CC(=O)Nc1ccc(C(=O)N2CCOc3nc(C)ccc32)cc1	-6.982	-6.42	26.42	4.938	-5.651
CCOC(=O)c1nnc2ccccc2c1N1CCOC(C)(C)C1	0.5508	-1.529	-33.98	4.167	-2.314
CC(C)Cn1ncc(C(=O)NS(=O)(=O)C2CCCC2)c1C1CC1	-4.827	-5.377	-15.16	0.8929	-1.132
Cc1[nH]c(=O)[nH]c(=O)c1CC(=O)N1CCC(Oc2ccc(F)cc2)CC1	-3.469	9.017	16.34	8.235	0.4914
COc1cccc(OCC2CCCN(Cc3ncc[nH]3)C2)c1 (centres undefined)	-11.14	-7.518	24.84	5.603	0.3802
Cl.Fc1cccc(F)c1Cn1c(C2CCNCC2)cc2cccnc21	-	26.42	57.89	-	-
CN(Cc1ccco1)Cc1cnc2n1CCN(c1ccccn1)CC2.O=C(O)C(F)(F)F.O=C(O)C(F)(F)F	-	-2.5	20.38	-	-
CC(=O)c1c(F)cccc1NC1CCN(C(=O)C2CCCCC2)CC1	0.7467	20.58	4.325	-1.064	-2.82
O=C(c1ccn(-c2cccc(F)c2)n1)N1CCN(CC2CC2)CC1	-5.036	-16.12	22.6	3.175	-6.509
Cc1ccc(CCNc2ncnc3sc4c(c23)CCNC4)o1	7.174	0.4327	-6.064	9.091	12.68
CC(C)N(C)C(=O)COc1ccc(-c2noc(C3CCCO3)n2)cc1 (centres undefined)	13.75	15.39	-5.607	1.327	3.738
CCn1nc(C)cc1C(=O)NCc1noc(C(C)(C)C)n1	-5.792	-14.68	5.532	7.921	-2.913
Cn1ccnc1CN1CCCN(C(=O)c2cccc(CC#N)c2)CC1	-12.65	10.98	-6.783	3.468	-1.149
Cc1ncccc1C(=O)Nc1cccc2c1C(=O)NC2	1.426	-1.77	10.78	9.392	10.07
CCCC(=O)NC1CCc2c(ccc(=O)n2Cc2csc(C)n2)C1.O=C(O)C(F)(F)F (centres undefined)	-	-17.23	38.16	-	-
CNc1cc(N2CCCC2CNCc2ccc(Cl)o2)ncn1 (centres undefined)	-0.3289	1.324	18.66	17.65	7.246
COCC(=O)NC1CC2(CCN(CCN(C)C)CC2)c2ccccc21 (centres undefined)	-2.726	-14.26	40.52	8.466	2.716

Data taken from ChEMBL document CHEMBL3988442, “University of Dundee, Small-Polar-MMV Screening Library” (2021).